Source: the supplement of paper PMC12823440, “Inhibitors supercharge kinase turnover through native proteolytic circuits” (Nature, 2025)
Where a name gives a salt, the structure may show the parent alone. The list shows a part of the results. Hit calls seldom repeat between salt and free forms of one compound.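 Kinases were expressed as nanoluciferase fusions in K562 cells and luminescence was read every 4 h between 2 and 18 h as percent of control, DMSO set to 100% and a positive control to 0%. A time point counts as decreased when the signal drops significantly (2 sigma). The hit call is the authors' own, does not follow from the count of time points alone, and its rule is not shown.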

Protein sequences, listed by entry. Tags and fused reporters are not part of them. Lines headed by an entry give the natural chain unless they say otherwise; changes in a name come on top.
UniProt P28482, whole entry: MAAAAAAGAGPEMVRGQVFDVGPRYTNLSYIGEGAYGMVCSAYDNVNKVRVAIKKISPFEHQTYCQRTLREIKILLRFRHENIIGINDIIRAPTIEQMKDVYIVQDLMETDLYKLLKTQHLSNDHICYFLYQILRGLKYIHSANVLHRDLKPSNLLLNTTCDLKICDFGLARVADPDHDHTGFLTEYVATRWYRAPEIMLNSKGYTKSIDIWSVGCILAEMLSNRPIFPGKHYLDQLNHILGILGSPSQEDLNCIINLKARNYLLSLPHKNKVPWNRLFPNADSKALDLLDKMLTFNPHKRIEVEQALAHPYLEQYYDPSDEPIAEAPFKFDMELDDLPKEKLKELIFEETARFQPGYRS
UniProt P31152, whole entry: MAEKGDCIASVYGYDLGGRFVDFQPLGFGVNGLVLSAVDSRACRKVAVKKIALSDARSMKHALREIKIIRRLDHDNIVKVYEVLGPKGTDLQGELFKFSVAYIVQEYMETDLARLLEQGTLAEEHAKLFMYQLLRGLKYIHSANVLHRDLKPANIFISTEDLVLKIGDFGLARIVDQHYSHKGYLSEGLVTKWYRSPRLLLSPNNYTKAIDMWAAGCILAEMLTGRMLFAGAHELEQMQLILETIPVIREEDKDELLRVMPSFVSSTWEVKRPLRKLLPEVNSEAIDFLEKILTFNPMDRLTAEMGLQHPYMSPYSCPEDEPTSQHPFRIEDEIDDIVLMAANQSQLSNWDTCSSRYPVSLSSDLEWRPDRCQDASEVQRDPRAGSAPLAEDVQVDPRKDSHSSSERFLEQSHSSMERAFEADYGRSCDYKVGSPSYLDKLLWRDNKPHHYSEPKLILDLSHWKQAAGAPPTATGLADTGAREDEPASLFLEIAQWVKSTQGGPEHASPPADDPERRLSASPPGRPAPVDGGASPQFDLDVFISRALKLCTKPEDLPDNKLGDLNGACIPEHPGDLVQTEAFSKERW
UniProt Q16620, whole entry, looked up: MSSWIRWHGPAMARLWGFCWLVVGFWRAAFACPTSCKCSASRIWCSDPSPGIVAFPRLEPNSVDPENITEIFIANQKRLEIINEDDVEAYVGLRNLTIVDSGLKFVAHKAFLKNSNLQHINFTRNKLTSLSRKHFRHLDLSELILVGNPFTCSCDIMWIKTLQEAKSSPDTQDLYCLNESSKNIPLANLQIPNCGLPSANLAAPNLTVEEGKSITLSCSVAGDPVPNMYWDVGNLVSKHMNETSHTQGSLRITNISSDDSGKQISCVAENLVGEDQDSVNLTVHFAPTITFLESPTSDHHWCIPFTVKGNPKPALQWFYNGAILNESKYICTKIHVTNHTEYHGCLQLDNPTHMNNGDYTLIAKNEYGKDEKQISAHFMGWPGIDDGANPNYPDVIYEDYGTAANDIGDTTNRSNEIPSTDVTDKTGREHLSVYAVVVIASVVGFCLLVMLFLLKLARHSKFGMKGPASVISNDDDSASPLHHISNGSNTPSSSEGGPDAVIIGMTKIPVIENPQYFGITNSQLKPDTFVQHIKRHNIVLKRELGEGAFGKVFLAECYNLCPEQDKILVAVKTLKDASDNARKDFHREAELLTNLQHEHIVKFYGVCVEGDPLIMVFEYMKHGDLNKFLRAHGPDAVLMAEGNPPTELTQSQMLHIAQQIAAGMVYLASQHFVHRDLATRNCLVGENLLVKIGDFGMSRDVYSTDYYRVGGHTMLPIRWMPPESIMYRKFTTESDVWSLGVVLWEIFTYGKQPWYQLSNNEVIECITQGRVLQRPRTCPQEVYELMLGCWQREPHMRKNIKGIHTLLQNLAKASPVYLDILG
UniProt Q16288, whole entry, looked up: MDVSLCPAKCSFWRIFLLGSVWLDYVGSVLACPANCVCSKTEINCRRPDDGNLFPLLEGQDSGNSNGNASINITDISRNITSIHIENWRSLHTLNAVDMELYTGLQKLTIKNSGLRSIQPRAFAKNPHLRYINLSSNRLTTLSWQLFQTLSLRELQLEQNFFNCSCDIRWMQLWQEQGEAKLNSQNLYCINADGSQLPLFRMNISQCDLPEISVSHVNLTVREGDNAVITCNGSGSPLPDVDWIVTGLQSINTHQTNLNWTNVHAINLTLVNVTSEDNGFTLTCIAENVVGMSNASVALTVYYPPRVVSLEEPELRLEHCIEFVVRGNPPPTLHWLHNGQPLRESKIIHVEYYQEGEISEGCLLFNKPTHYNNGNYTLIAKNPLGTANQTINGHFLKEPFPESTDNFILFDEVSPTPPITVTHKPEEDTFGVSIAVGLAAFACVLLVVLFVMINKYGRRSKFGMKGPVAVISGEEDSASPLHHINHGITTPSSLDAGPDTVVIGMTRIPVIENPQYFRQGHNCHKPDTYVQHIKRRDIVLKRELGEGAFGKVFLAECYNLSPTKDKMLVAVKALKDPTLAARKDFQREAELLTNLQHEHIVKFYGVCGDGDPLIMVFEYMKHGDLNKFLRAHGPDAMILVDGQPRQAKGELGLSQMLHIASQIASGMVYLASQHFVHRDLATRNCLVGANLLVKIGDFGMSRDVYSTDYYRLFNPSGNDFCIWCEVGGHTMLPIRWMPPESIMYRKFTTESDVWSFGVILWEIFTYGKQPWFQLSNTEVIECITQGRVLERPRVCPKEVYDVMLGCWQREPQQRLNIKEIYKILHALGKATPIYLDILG
UniProt O96013: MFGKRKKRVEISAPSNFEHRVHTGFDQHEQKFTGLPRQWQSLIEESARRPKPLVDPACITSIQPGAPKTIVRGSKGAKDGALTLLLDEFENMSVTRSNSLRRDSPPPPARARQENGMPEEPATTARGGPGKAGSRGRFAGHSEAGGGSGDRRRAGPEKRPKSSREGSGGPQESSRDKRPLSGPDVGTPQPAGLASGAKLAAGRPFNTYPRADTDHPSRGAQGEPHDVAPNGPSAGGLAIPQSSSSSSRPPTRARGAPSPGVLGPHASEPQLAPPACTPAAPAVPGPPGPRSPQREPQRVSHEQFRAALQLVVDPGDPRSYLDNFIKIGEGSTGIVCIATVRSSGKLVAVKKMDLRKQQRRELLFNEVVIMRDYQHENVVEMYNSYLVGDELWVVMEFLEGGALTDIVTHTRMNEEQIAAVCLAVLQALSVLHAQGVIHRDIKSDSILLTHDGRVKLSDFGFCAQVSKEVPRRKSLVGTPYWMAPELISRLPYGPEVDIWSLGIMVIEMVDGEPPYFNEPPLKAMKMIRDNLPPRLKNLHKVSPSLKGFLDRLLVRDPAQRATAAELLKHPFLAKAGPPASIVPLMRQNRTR
UniProt Q96KB5: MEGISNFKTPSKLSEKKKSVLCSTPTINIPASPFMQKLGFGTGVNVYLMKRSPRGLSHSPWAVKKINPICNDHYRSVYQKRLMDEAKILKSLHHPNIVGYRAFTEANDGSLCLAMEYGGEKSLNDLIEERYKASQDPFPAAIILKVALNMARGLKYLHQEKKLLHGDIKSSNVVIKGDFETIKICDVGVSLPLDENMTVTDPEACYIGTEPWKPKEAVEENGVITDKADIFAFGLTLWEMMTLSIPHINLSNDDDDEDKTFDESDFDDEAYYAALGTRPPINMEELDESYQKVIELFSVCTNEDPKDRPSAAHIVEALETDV
UniProt P53350, whole entry: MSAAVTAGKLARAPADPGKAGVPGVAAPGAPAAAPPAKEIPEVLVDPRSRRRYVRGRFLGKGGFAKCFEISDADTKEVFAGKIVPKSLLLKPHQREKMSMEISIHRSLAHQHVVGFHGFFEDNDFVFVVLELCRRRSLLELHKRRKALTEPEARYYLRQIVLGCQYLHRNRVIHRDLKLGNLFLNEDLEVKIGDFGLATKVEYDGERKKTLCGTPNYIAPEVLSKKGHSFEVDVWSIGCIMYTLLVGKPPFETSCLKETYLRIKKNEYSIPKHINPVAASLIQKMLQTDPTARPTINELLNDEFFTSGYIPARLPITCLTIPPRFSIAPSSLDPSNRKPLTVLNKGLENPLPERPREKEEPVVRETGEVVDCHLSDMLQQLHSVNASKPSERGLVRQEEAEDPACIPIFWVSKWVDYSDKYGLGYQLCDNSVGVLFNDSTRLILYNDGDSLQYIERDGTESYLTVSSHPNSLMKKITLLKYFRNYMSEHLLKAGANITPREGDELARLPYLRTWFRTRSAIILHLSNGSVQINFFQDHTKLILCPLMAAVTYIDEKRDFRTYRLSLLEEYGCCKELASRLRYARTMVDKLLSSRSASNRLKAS
UniProt Q13131: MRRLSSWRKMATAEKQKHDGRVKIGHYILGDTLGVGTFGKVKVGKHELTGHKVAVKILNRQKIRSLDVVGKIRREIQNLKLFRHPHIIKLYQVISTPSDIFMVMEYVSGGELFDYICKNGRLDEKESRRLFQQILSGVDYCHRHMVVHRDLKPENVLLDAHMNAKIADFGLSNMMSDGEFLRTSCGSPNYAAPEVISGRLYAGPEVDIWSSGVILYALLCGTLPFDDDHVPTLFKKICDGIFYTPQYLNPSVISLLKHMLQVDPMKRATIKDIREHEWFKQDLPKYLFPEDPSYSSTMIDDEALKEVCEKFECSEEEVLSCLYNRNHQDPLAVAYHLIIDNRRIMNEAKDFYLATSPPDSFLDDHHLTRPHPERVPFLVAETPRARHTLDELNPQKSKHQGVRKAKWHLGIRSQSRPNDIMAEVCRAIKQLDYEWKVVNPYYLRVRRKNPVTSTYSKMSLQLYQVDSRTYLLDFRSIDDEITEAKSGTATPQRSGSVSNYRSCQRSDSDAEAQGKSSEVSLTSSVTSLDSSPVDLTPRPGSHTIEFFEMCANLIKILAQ
UniProt Q05397, whole entry, looked up: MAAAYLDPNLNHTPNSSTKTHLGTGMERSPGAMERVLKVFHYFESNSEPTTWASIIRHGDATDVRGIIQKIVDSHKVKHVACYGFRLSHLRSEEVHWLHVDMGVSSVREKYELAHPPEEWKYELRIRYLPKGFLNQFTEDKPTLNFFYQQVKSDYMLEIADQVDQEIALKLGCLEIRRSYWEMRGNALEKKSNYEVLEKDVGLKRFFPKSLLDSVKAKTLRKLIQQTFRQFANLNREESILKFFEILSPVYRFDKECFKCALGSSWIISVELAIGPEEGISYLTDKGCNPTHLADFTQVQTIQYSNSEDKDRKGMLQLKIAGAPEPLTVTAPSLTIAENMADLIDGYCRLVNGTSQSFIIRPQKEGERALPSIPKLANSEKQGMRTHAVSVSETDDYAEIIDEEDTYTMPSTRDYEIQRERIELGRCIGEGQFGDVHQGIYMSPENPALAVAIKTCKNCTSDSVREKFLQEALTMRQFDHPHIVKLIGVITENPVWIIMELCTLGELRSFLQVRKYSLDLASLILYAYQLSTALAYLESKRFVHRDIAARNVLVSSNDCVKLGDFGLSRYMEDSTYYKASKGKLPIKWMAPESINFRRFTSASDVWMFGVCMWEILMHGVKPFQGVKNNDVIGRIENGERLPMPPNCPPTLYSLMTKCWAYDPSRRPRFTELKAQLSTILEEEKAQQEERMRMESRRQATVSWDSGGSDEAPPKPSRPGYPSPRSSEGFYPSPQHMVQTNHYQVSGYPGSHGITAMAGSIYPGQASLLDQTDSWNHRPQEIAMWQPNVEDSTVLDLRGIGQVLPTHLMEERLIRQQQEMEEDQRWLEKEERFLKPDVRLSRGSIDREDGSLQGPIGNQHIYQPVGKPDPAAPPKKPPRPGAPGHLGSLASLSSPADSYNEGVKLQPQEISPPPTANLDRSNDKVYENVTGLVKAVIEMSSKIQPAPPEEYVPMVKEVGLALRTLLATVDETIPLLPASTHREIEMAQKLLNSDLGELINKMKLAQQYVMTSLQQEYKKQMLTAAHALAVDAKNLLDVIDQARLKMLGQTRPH

What was measured:
Experiment in all cases: kinase-Nluc reporter destabilization hit call (1 = scored as downregulated) (binary); higher = compound decreases kinase abundance
Conditions in all cases: K562; 2-18 h
[1] = biological target: MAPK1 (UniProt P28482)
[2] = biological target: MAPK4 (UniProt P31152)
[3] = biological target: MAPKAPK2 (UniProt P49137)
[4] = biological target: MKNK1 (UniProt Q9BUB5)
[5] = biological target: NTRK2 (UniProt Q16620)
[6] = biological target: NTRK3 (UniProt Q16288)
[7] = biological target: PAK4 (UniProt O96013)
[8] = biological target: PBK (UniProt Q96KB5)
[9] = biological target: PDGFRB (UniProt P09619)
[10] = biological target: PDK1 (UniProt Q15118)
[11] = biological target: PDPK1 (UniProt O15530)
[12] = biological target: PIK4CA (UniProt P42356)
[13] = biological target: PIK4CB (UniProt Q9UBF8)
[14] = biological target: PLK1 (UniProt P53350)
[15] = biological target: PRKAA1 (UniProt Q13131)
[16] = biological target: PRKCA (UniProt P17252)
[17] = biological target: PTK2 (UniProt Q05397)
[18] = biological target: PTK2B (UniProt Q14289)
[19] = biological target: RAF1 (UniProt P04049)
[20] = biological target: RAF1_S257L (clone: RAF1_mut) (UniProt P04049)

With `Cc1c(C(=O)Nc2ccc(Oc3ccnc4cc(OCC(C)(C)O)ccc34)c(F)c2)c(=O)n(-c2ccccc2)n1C` [Ningetinib Tosylate] (10 µM) the “kinase-Nluc reporter destabilization hit call” value [1] was inactive: 0, the “kinase-Nluc reporter destabilization hit call” value [2] was inactive: 0 and the “kinase-Nluc reporter destabilization hit call” value [3] was inactive: 0. For the same compound, the “kinase-Nluc reporter destabilization hit call” value [4] was inactive: 0, the “kinase-Nluc reporter destabilization hit call” value [5] was inactive: 0 and the “kinase-Nluc reporter destabilization hit call” value [6] was inactive: 0. The “kinase-Nluc reporter destabilization hit call” value [7] was inactive: 0, the “kinase-Nluc reporter destabilization hit call” value [8] was inactive: 0 and the “kinase-Nluc reporter destabilization hit call” value [9] was inactive: 0. The “kinase-Nluc reporter destabilization hit call” value [10] was inactive: 0, the “kinase-Nluc reporter destabilization hit call” value [11] was inactive: 0 and the “kinase-Nluc reporter destabilization hit call” value [12] was inactive: 0. The “kinase-Nluc reporter destabilization hit call” value [13] was inactive: 0, the “kinase-Nluc reporter destabilization hit call” value [14] was inactive: 0 and the “kinase-Nluc reporter destabilization hit call” value [15] was inactive: 0. For the same compound, the “kinase-Nluc reporter destabilization hit call” value [16] was inactive: 0, the “kinase-Nluc reporter destabilization hit call” value [17] was inactive: 0 and the “kinase-Nluc reporter destabilization hit call” value [18] was inactive: 0. The “kinase-Nluc reporter destabilization hit call” value [19] was inactive: 0 and the “kinase-Nluc reporter destabilization hit call” value [20] was inactive: 0.
In the case of `CN1CCN(c2ccc(NC(=O)c3ccc(C#N)o3)c(N3CCCCC3)c2)CC1` (10 µM), the “kinase-Nluc reporter destabilization hit call” value [1] is reported as inactive: 0, the “kinase-Nluc reporter destabilization hit call” value [2] is reported as inactive: 0 and the “kinase-Nluc reporter destabilization hit call” value [3] is reported as inactive: 0. For the same compound, the “kinase-Nluc reporter destabilization hit call” value [4] was inactive: 0, the “kinase-Nluc reporter destabilization hit call” value [5] was inactive: 0 and the “kinase-Nluc reporter destabilization hit call” value [6] was inactive: 0. For the same compound, the “kinase-Nluc reporter destabilization hit call” value [7] was inactive: 0, the “kinase-Nluc reporter destabilization hit call” value [8] was inactive: 0 and the “kinase-Nluc reporter destabilization hit call” value [9] was inactive: 0. The “kinase-Nluc reporter destabilization hit call” value [10] was inactive: 0, the “kinase-Nluc reporter destabilization hit call” value [11] was inactive: 0 and the “kinase-Nluc reporter destabilization hit call” value [12] was inactive: 0. The “kinase-Nluc reporter destabilization hit call” value [13] was inactive: 0, the “kinase-Nluc reporter destabilization hit call” value [14] was inactive: 0 and the “kinase-Nluc reporter destabilization hit call” value [15] was inactive: 0. The “kinase-Nluc reporter destabilization hit call” value [16] was inactive: 0, the “kinase-Nluc reporter destabilization hit call” value [17] was inactive: 0 and the “kinase-Nluc reporter destabilization hit call” value [18] was inactive: 0. For the same compound, the “kinase-Nluc reporter destabilization hit call” value [19] was inactive: 0 and the “kinase-Nluc reporter destabilization hit call” value [20] was inactive: 0.
For `COc1ccc2c(c1)C[C@H](C(=O)Nc1ccc(-c3cn[nH]c3)cc1OCCN(C)C)CO2` [Chroman 1] (10 µM), the “kinase-Nluc reporter destabilization hit call” value [1] was inactive: 0, the “kinase-Nluc reporter destabilization hit call” value [2] was inactive: 0 and the “kinase-Nluc reporter destabilization hit call” value [3] was inactive: 0. The “kinase-Nluc reporter destabilization hit call” value [4] was inactive: 0, the “kinase-Nluc reporter destabilization hit call” value [5] was inactive: 0 and the “kinase-Nluc reporter destabilization hit call” value [6] was inactive: 0. The “kinase-Nluc reporter destabilization hit call” value [7] was inactive: 0, the “kinase-Nluc reporter destabilization hit call” value [8] was inactive: 0 and the “kinase-Nluc reporter destabilization hit call” value [9] was inactive: 0. For the same compound, the “kinase-Nluc reporter destabilization hit call” value [10] was inactive: 0, the “kinase-Nluc reporter destabilization hit call” value [11] was inactive: 0 and the “kinase-Nluc reporter destabilization hit call” value [12] was inactive: 0. The “kinase-Nluc reporter destabilization hit call” value [13] was inactive: 0, the “kinase-Nluc reporter destabilization hit call” value [14] was inactive: 0 and the “kinase-Nluc reporter destabilization hit call” value [15] was inactive: 0. For the same compound, the “kinase-Nluc reporter destabilization hit call” value [16] was inactive: 0, the “kinase-Nluc reporter destabilization hit call” value [17] was inactive: 0 and the “kinase-Nluc reporter destabilization hit call” value [18] was inactive: 0. The “kinase-Nluc reporter destabilization hit call” value [19] was inactive: 0 and the “kinase-Nluc reporter destabilization hit call” value [20] was inactive: 0.
`CCOc1cc(C(=O)N2CCC(N3CCN(C)CC3)CC2)ccc1Nc1ncc2c(n1)N(S(C)(=O)=O)c1ccccc1C(=O)N2C` (10 µM) was tested, and the “kinase-Nluc reporter destabilization hit call” value [1] was inactive: 0, the “kinase-Nluc reporter destabilization hit call” value [2] was inactive: 0 and the “kinase-Nluc reporter destabilization hit call” value [3] was inactive: 0. The “kinase-Nluc reporter destabilization hit call” value [4] was inactive: 0, the “kinase-Nluc reporter destabilization hit call” value [5] was inactive: 0 and the “kinase-Nluc reporter destabilization hit call” value [6] was inactive: 0. The “kinase-Nluc reporter destabilization hit call” value [7] was inactive: 0, the “kinase-Nluc reporter destabilization hit call” value [8] was inactive: 0 and the “kinase-Nluc reporter destabilization hit call” value [9] was inactive: 0. For the same compound, the “kinase-Nluc reporter destabilization hit call” value [10] was inactive: 0, the “kinase-Nluc reporter destabilization hit call” value [11] was inactive: 0 and the “kinase-Nluc reporter destabilization hit call” value [12] was inactive: 0. For the same compound, the “kinase-Nluc reporter destabilization hit call” value [13] was inactive: 0, the “kinase-Nluc reporter destabilization hit call” value [14] was inactive: 0 and the “kinase-Nluc reporter destabilization hit call” value [15] was inactive: 0. The “kinase-Nluc reporter destabilization hit call” value [16] was inactive: 0, the “kinase-Nluc reporter destabilization hit call” value [17] was inactive: 0 and the “kinase-Nluc reporter destabilization hit call” value [18] was inactive: 0. The “kinase-Nluc reporter destabilization hit call” value [19] was inactive: 0 and the “kinase-Nluc reporter destabilization hit call” value [20] was inactive: 0.
For `Cc1cc(Nc2ncc(Cl)c(Nc3ccccc3S(=O)(=O)C(C)C)n2)c(OC(C)C)cc1C1CCN(CC(=O)NCCNc2cccc3c2C(=O)N(C2CCC(=O)NC2=O)C3=O)CC1` (stereo not given) (10 µM), the “kinase-Nluc reporter destabilization hit call” value [1] was inactive: 0, the “kinase-Nluc reporter destabilization hit call” value [2] was inactive: 0 and the “kinase-Nluc reporter destabilization hit call” value [3] was inactive: 0. The “kinase-Nluc reporter destabilization hit call” value [4] was inactive: 0, the “kinase-Nluc reporter destabilization hit call” value [5] was inactive: 0 and the “kinase-Nluc reporter destabilization hit call” value [6] was inactive: 0. For the same compound, the “kinase-Nluc reporter destabilization hit call” value [7] was inactive: 0, the “kinase-Nluc reporter destabilization hit call” value [8] was inactive: 0 and the “kinase-Nluc reporter destabilization hit call” value [9] was inactive: 0. The “kinase-Nluc reporter destabilization hit call” value [10] was inactive: 0, the “kinase-Nluc reporter destabilization hit call” value [11] was inactive: 0 and the “kinase-Nluc reporter destabilization hit call” value [12] was inactive: 0. The “kinase-Nluc reporter destabilization hit call” value [13] was inactive: 0, the “kinase-Nluc reporter destabilization hit call” value [14] was inactive: 0 and the “kinase-Nluc reporter destabilization hit call” value [15] was inactive: 0. For the same compound, the “kinase-Nluc reporter destabilization hit call” value [16] was inactive: 0, the “kinase-Nluc reporter destabilization hit call” value [17] was active: 1 and the “kinase-Nluc reporter destabilization hit call” value [18] was inactive: 0. For the same compound, the “kinase-Nluc reporter destabilization hit call” value [19] was inactive: 0 and the “kinase-Nluc reporter destabilization hit call” value [20] was inactive: 0.
For `COc1ncc2cc(C(=O)Nc3cc(C(=O)NCc4cccc(Cl)c4)ccc3Cl)c(=O)[nH]c2n1` (2.5 µM), the “kinase-Nluc reporter destabilization hit call” value [1] was inactive: 0, the “kinase-Nluc reporter destabilization hit call” value [2] was inactive: 0 and the “kinase-Nluc reporter destabilization hit call” value [3] was inactive: 0. For the same compound, the “kinase-Nluc reporter destabilization hit call” value [4] was inactive: 0, the “kinase-Nluc reporter destabilization hit call” value [5] was inactive: 0 and the “kinase-Nluc reporter destabilization hit call” value [6] was inactive: 0. For the same compound, the “kinase-Nluc reporter destabilization hit call” value [7] was inactive: 0, the “kinase-Nluc reporter destabilization hit call” value [8] was inactive: 0 and the “kinase-Nluc reporter destabilization hit call” value [9] was inactive: 0. For the same compound, the “kinase-Nluc reporter destabilization hit call” value [10] was inactive: 0, the “kinase-Nluc reporter destabilization hit call” value [11] was inactive: 0 and the “kinase-Nluc reporter destabilization hit call” value [12] was inactive: 0. The “kinase-Nluc reporter destabilization hit call” value [13] was inactive: 0, the “kinase-Nluc reporter destabilization hit call” value [14] was inactive: 0 and the “kinase-Nluc reporter destabilization hit call” value [15] was inactive: 0. The “kinase-Nluc reporter destabilization hit call” value [16] was inactive: 0, the “kinase-Nluc reporter destabilization hit call” value [17] was inactive: 0 and the “kinase-Nluc reporter destabilization hit call” value [18] was inactive: 0. The “kinase-Nluc reporter destabilization hit call” value [19] was inactive: 0 and the “kinase-Nluc reporter destabilization hit call” value [20] was inactive: 0.
`C[C@@H]1CN(Cc2cn[nH]c2-c2ccc(C#N)cc2)CCN1c1ccc(C(F)(F)F)cn1` (2.5 µM) was tested, and the “kinase-Nluc reporter destabilization hit call” value [1] was inactive: 0, the “kinase-Nluc reporter destabilization hit call” value [2] was inactive: 0 and the “kinase-Nluc reporter destabilization hit call” value [3] was inactive: 0. The “kinase-Nluc reporter destabilization hit call” value [4] was inactive: 0, the “kinase-Nluc reporter destabilization hit call” value [5] was inactive: 0 and the “kinase-Nluc reporter destabilization hit call” value [6] was inactive: 0. For the same compound, the “kinase-Nluc reporter destabilization hit call” value [7] was inactive: 0, the “kinase-Nluc reporter destabilization hit call” value [8] was inactive: 0 and the “kinase-Nluc reporter destabilization hit call” value [9] was inactive: 0. The “kinase-Nluc reporter destabilization hit call” value [10] was inactive: 0, the “kinase-Nluc reporter destabilization hit call” value [11] was inactive: 0 and the “kinase-Nluc reporter destabilization hit call” value [12] was inactive: 0. The “kinase-Nluc reporter destabilization hit call” value [13] was inactive: 0, the “kinase-Nluc reporter destabilization hit call” value [14] was inactive: 0 and the “kinase-Nluc reporter destabilization hit call” value [15] was inactive: 0. For the same compound, the “kinase-Nluc reporter destabilization hit call” value [16] was inactive: 0, the “kinase-Nluc reporter destabilization hit call” value [17] was inactive: 0 and the “kinase-Nluc reporter destabilization hit call” value [18] was inactive: 0. The “kinase-Nluc reporter destabilization hit call” value [19] was inactive: 0 and the “kinase-Nluc reporter destabilization hit call” value [20] was inactive: 0.
With `CN(C)C(=O)c1cc2cnc(Nc3ccc(NC(=O)C4(C(=O)Nc5ccc(F)cc5)CC4)cc3)nc2n1C1CCCC1` (2 µM) the “kinase-Nluc reporter destabilization hit call” value [1] was inactive: 0, the “kinase-Nluc reporter destabilization hit call” value [2] was inactive: 0 and the “kinase-Nluc reporter destabilization hit call” value [3] was inactive: 0. For the same compound, the “kinase-Nluc reporter destabilization hit call” value [4] was inactive: 0, the “kinase-Nluc reporter destabilization hit call” value [5] was inactive: 0 and the “kinase-Nluc reporter destabilization hit call” value [6] was inactive: 0. For the same compound, the “kinase-Nluc reporter destabilization hit call” value [7] was inactive: 0, the “kinase-Nluc reporter destabilization hit call” value [8] was inactive: 0 and the “kinase-Nluc reporter destabilization hit call” value [9] was inactive: 0. For the same compound, the “kinase-Nluc reporter destabilization hit call” value [10] was inactive: 0, the “kinase-Nluc reporter destabilization hit call” value [11] was inactive: 0 and the “kinase-Nluc reporter destabilization hit call” value [12] was inactive: 0. The “kinase-Nluc reporter destabilization hit call” value [13] was inactive: 0, the “kinase-Nluc reporter destabilization hit call” value [14] was inactive: 0 and the “kinase-Nluc reporter destabilization hit call” value [15] was inactive: 0. For the same compound, the “kinase-Nluc reporter destabilization hit call” value [16] was inactive: 0, the “kinase-Nluc reporter destabilization hit call” value [17] was inactive: 0 and the “kinase-Nluc reporter destabilization hit call” value [18] was inactive: 0. The “kinase-Nluc reporter destabilization hit call” value [19] was inactive: 0 and the “kinase-Nluc reporter destabilization hit call” value [20] was inactive: 0.
